Results as given in PMC4674823.
These are yes or no findings as the source states them, for the method shown. Binding seen in cells or lysates may run through a third protein. Binding can be weak; no strength is given. Sequences can lack the tags named with a protein.

What was measured:
[1] = biological target: T1, GST–PIAS3 (UniProt O54714); assay: pull-down; reciprocal: GST–PIAS3 or GST–PIAS4 affinity purified on Glutathione-Sepharose (ELB buffer), western blot for endogenous AMPK subunits
T1 sequence: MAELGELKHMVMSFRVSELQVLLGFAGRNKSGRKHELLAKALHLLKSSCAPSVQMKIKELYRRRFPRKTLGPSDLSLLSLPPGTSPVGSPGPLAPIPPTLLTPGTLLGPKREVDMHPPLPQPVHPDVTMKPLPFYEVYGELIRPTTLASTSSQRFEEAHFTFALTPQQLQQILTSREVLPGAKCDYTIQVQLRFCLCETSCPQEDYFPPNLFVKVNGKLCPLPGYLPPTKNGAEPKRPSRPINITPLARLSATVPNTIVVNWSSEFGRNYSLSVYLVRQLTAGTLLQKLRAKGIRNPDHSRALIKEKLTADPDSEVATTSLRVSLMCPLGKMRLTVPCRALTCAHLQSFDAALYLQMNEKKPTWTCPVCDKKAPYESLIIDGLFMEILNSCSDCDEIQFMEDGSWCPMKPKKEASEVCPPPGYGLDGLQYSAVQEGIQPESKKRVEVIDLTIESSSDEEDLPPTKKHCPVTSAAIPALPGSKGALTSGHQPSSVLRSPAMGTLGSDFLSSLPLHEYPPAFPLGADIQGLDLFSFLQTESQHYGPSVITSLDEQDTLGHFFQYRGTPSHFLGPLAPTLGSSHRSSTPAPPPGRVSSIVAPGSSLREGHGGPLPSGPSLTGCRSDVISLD

[2] = biological target: T2, GST–PIAS4 (affinity purification with endogenous AMPK subunits) (UniProt Q9JM05); assay: as above
T2 sequence: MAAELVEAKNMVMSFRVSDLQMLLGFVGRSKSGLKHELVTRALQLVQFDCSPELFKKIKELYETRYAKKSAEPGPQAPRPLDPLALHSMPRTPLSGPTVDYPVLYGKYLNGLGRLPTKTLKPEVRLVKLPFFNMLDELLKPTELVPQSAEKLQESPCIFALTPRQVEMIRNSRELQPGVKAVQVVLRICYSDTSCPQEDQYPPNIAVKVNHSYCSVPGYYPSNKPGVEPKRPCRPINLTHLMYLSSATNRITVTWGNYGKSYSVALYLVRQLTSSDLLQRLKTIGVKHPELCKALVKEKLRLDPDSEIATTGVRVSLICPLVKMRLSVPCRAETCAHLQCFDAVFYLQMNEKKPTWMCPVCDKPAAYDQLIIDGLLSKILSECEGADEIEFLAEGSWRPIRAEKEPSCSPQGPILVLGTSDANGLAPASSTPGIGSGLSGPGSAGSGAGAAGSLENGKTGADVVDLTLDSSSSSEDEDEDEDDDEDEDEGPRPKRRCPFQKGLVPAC

binding [1]: binds
binding [2]: binds
Substance: endogenous AMPKγ subunit (human (endogenous in HEK293))
